The chains behind the UniProt entries cited, without tags or fusion partners.
UniProt Q9H0J9: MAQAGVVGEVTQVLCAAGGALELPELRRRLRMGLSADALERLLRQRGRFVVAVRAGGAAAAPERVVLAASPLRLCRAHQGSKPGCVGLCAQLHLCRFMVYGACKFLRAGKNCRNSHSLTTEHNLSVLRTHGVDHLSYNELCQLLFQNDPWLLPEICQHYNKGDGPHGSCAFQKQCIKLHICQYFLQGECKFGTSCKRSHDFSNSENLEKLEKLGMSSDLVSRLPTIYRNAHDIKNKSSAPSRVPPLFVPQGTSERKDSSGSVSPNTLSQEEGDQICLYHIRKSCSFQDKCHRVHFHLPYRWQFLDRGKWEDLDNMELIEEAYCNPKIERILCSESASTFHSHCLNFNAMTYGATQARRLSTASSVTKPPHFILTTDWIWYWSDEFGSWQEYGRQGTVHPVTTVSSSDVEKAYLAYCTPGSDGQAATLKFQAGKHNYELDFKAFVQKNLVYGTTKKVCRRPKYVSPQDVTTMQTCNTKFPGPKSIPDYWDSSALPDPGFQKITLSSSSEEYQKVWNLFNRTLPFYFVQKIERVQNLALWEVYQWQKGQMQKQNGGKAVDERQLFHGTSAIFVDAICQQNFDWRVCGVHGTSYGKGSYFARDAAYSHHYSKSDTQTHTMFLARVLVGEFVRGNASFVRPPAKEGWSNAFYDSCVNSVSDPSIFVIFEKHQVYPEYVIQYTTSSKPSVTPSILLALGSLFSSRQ

According to paper PMC6113207:

Target: streptavidin-Flag-S protein (SFB)-tagged PARP12 (human) (UniProt Q9H0J9)
Assay: affinity purification with mass spectrometry; tandem affinity purification of SFB-PARP12 from stably expressing HEK293T cells: NETN lysate, streptavidin beads, biotin elution, S beads, 4 °C; whole lanes analysed by mass spectrometry; SFB-tag cells as negative control

binding: binds
B1: four-and-a-half LIM-only protein 2 (FHL2), endogenous (protein, UniProt Q14192 1-279)
chain: MTERFDCHHCNESLFGKKYILREESPYCVVCFETLFANTCEECGKPIGCDCKDLSYKDRHWHEACFHCSQCRNSLVDKPFAAKEDQLLCTDCYSNEYSSKCQECKKTIMPGTRKMEYKGSSWHETCFICHRCQQPIGTKSFIPKDNQNFCVPCYEKQHAMQCVQCKKPITTGGVTYREQPWHKECFVCTACRKQLSGQRFTARDDFAYCLNCFCDLYAKKCAGCTNPISGLGGTKYISFEERQWHNDCFNCKKCSLSLVGRGFLTERDDILCPDCGKDI

Results are given in words; binding and its absence hold for the method and conditions named. In cells and extracts the contact can be indirect. These calls come from enrichment with a bait or labelling near it, and not all partners need be listed.
